The values below come from PubChem BioAssay AID493014 (National Center for Advancing Translational Sciences (NCATS), 2011).

The other results are listed elsewhere or left out. Further columns of the screen follow, without active or inactive calls. The list favours compounds with an active or inconclusive main result. Potencies come from curve fits of mixed quality, noted in brackets.

As usually defined, the AC50 is the concentration giving half of the maximal activity seen.

The assay is described as follows: qHTS Assay to Find Inhibitors of Chronic Active B-Cell Receptor Signaling. Particulars: ABC-DLBCL IkBa-CBG/CBR reporter, luminescence ratio (green luciferase fused to IkBa over red control in TMD8 lymphoma cells), 4 h; measured here: CBR red luminescence, cell number. The gist of the method:
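Doxycycline induced both beetle luciferases in TMD8 lymphoma cells; IKK-driven degradation limits the IkappaBalpha-fused green signal, while red luminescence normalises for cell number and nonspecific effects. Compounds tested up to 46 uM, 4 hrs.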
In general terms: Quantitative high-throughput screening tests each substance at several concentrations.
On to `Cc1ccc(OCC(=O)N2CCc3ccccc32)c([N+](=O)[O-])n1`, for which the half-maximal activity concentration (AC50) is 15.8 µM [rising, single point].
As to `O=C(COc1ccc(Br)cc1Cl)NNC(=O)c1ccccc1`, the concentration at half-maximal activity (AC50) is 2.59 µM [rising, full curve, poor fit].
With `CCOC(=O)c1cnn(-c2nc3sc4c(c3c(=O)[nH]2)CCCC4)c1N` the figure was 7.08 µM [falling, partial curve].
Consider `CN1CCC=C(C(=O)N2c3ccccc3Sc3ccc(Cl)cc32)C1`, for which the half-maximal activity concentration (AC50) was 20 µM [falling, single point].
Under `N=c1oc2ccccc2cc1C(=O)NCc1ccccc1` stands 35.5 µM [falling, single point]; under `CC(=O)Nc1nccc(-c2cc(-c3ccccc3)no2)n1`, 8.91 µM [falling, partial curve, poor fit]; under `COc1ccc(/C=C/C(=O)O)cc1COc1ccccc1C`, 5.8 µM [falling, single point].
With `CCOC(=O)c1c(C)[nH]c(NC(=O)NNC(=O)c2ccc(OC)cc2)c1C` the figure was 14.6 µM [falling, partial curve, poor fit].
Under `CC(=O)c1cccc(NC(=O)c2noc3c2CC(C)CC3)c1` (stereo unspecified) stands 7.08 µM [rising, partial curve, poor fit]; under `CCN1CCN(Cc2ccc(NC(=O)CC3Oc4ccc(C)cc4NC3=O)cc2)CC1` (stereo unspecified), 8.2 µM [falling, partial curve, poor fit]; under `O=C1CN(CC(=O)Nc2cccc(Cl)c2Cl)c2ccccc2N1`, 28.2 µM [falling, single point].
In the case of `COc1ccccc1C(=O)Nc1nnc(S(=O)(=O)N(C)Cc2ccccc2)s1`, the concentration at half-maximal activity (AC50) was 20 µM [rising, single point].
Under `CC(C)(C)NS(=O)(=O)c1ccc(CCC(=O)N2CCCC2)cc1` stands 3.16 µM [rising, full curve, poor fit].
With `O=C(Nc1ccc(N2CCOCC2)nc1)c1c(F)cccc1F` the figure was 10 µM [falling, partial curve].
Under `COC(=O)c1cc(=O)n(Cc2cccs2)c(=Nc2ccc(F)cc2)s1` stands 11.2 µM [falling, partial curve, poor fit]; under `O=c1[nH]c2ccccc2n1CCCOc1ccccc1`, 0.794 µM [rising, full curve, poor fit]; under `CSC1=N/C(=C\C=C\c2cccs2)C(=O)S1`, 1.46 µM [rising, partial curve, poor fit].
Take `CCc1ccc2nc(N(Cc3cccnc3)C(=O)c3cccs3)sc2c1`: the half-maximal activity concentration (AC50) is 1.26 µM [falling, full curve].
Under `CN1CCN(S(=O)(=O)c2ccc3c(c2)C(C)(C)C(=O)N3C)CC1` stands 35.5 µM [rising, single point]; under `Cc1cc(C=C2C(=O)c3ccccc3C2=O)c(C)n1-c1cccc(C(=O)O)c1`, 35.5 µM [falling, single point]; under `N=C1C(c2nc3ccccc3[nH]2)=C(O)CN1C1CCCCC1`, 7.94 µM [rising, partial curve, poor fit].
On to `O=C(c1ccc(Cn2c(=S)[nH]c3ccc(N4CCOCC4)cc3c2=O)cc1)N1CCC(N2CCCCC2)CC1`, for which the AC50 is 11.2 µM [falling, partial curve, poor fit].
With `CC(=NCCCn1ccnc1)C1=C(O)c2ccccc2C1=O` the figure was 14.1 µM [falling, partial curve, poor fit].
Turning to `CCCOC(=O)c1ccc(NC(=O)c2ccoc2C)cc1`, the AC50 was 25.9 µM [falling, single point].
For the compound `Cc1cccc(CS(=O)(=O)c2ncc(Cl)c(C(=O)NCc3ccc4c(c3)OCO4)n2)c1`, the half-maximal activity concentration (AC50) is 35.5 µM [falling, single point].
Under `CN1CCc2c(sc3c2C(=O)NC(c2ccc(-c4cccc(Cl)c4)o2)N3)C1` (stereo unspecified) stands 2.82 µM [falling, full curve]; under `O=C(Nc1ccncc1)c1ccccc1Cl`, 35.5 µM [falling, single point].
In the case of `Cc1cccc(NC(=O)CN(C)S(=O)(=O)c2ccc(Br)cc2)n1`, the half-maximal activity concentration (AC50) was 0.82 µM [rising, full curve, poor fit].
Under `COc1ccc(NC(=O)CS(=O)(=O)c2cn(CC(=O)N3CCOCC3)c3ccccc23)cc1OC` stands 35.5 µM [falling, single point]; under `Fc1ccccc1-n1cn[nH]c1=S`, 35.5 µM [falling, single point]; under `Cc1ccc(CNC(=O)[C@H](C)NC(=O)C2CCN(C(=O)[C@@H](N)CC(C)C)CC2)cc1`, 20 µM [falling, partial curve, poor fit].
With `Cc1cccc(N(C(=O)c2csnn2)C(C(=O)NCc2ccccc2)c2ccncc2)c1` (stereo unspecified) the figure was 0.794 µM [falling, partial curve, poor fit]; with `C[C@H](NC(=O)c1cc2cc(Cl)ccc2n1C)C(=O)N1CCC(C(=O)O)CC1`, 31.6 µM [rising, single point]; with `CC(C)(O)c1cc2ccc(C#CCCN3C(=O)c4ccccc4C3=O)cc2c(=O)o1`, 7.31 µM [rising, partial curve, poor fit].
With `Cc1ccc(-c2nn(-c3ccc(F)cc3)cc2C(=O)NC2CCC(O)CC2)cc1` (stereo unspecified) the figure was 14.6 µM [rising, partial curve, poor fit]; with `COc1cccc2sc3cc(NCC[C@@H]4CCCN4C)ccc3c(=O)c12`, 18.4 µM [falling, single point].
For the compound `COc1ccc(C(=O)Nc2ccccc2C(=O)O)cc1NC(=O)C(c1ccccc1)c1ccccc1`, the AC50 was 2.82 µM [falling, full curve, poor fit].
For the compound `COc1ccccc1C(=O)Nc1nc2ccccc2[nH]1`, the half-maximal activity concentration (AC50) was 0.316 µM [falling, full curve].
Take `O=C(Nc1ccc(Cl)cn1)Nc1cccs1`: the AC50 is 14.6 µM [falling, single point].
With `Cc1cc(N2CCOCC2)nc(SCC(=O)c2ccccc2)n1` the figure was 10 µM [falling, partial curve].
In the case of `Cc1ccc(-c2ccc(/C=C(\C#N)C(=O)Nc3cc(C)nn3-c3ccccc3)o2)cc1`, the AC50 is 29.1 µM [falling, single point].
